Experiment [1] deals with T1, CD74 (endogenous mouse CD74 in L1.2-CXCR2 transfectants) (mouse) (UniProt P04441).
T1 sequence (looked up): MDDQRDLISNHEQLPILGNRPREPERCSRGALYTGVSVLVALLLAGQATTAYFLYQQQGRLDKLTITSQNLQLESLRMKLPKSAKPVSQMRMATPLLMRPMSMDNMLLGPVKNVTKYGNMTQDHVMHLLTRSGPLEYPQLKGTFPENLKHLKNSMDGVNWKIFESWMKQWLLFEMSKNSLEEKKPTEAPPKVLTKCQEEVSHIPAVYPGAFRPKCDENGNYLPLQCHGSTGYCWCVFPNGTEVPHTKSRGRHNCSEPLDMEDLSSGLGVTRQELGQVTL
The experiment in a line: co-immunoprecipitation with an antibody to CXCR2 from L1.2-CXCR2 cells, western blot with antibody to mouse CD74.

Amino acid sequences for entries named in this document (tags omitted).
UniProt P25025: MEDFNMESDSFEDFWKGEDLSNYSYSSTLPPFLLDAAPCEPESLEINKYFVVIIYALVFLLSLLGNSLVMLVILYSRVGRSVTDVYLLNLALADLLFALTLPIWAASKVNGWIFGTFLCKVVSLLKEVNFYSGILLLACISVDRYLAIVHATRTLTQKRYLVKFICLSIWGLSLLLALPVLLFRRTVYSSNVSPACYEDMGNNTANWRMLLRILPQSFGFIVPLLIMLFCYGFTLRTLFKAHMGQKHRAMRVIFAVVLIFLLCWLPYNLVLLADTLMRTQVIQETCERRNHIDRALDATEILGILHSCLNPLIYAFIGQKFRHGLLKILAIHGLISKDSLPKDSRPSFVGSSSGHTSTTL

Experiment [2] has as its target T1, CD74 (endogenous mouse CD74 in L1.2-CXCR2 transfectants) (mouse). Put plainly: co-immunoprecipitation from L1.2-CXCR2 transfectants.

Results are given in words; binding and its absence hold for the method and conditions named. Binding seen in cells or lysates may run through a third protein. Some binding calls cover weakened binding; strength is not graded here.

Take “CXCR2 (human CXCR2 expressed on transfectants) (from UniProt P25025 1-360) (receptor)”: the binding entry in experiment [1] and in experiment [2] was “binds” each time.

For the origin of these results see patent US20110070184A1, “METHODS AND COMPOSITIONS FOR TREATING ATHEROSCLEROSIS AND RELATED CONDIDTIONS” (CAROLUS THERPEUTICS, INC., priority 2008, published 2011).
